# Laboratory results as given in ChEMBL document CHEMBL4316593 (Eur J Med Chem, 2019).
# Further values from the same series stand in other lists.
# What was measured:
# Type in all cases: cell-based
# Conditions in all cases: U-87MG ATCC
# [1] = Inhibition of RTK/PI3K/AKT/mTOR signaling in human U87 cells assessed as down regulation of ZSWIM5 gene expression at cytotoxic IC50 measured after 48 hrs relative to control
# [2] = Inhibition of RTK/PI3K/AKT/mTOR signaling in human U87 cells assessed as down regulation of GPATCH2 gene expression at cytotoxic IC50 measured after 48 hrs relative to control
# [3] = Inhibition of RTK/PI3K/AKT/mTOR signaling in human U87 cells assessed as down regulation of PNP gene expression at cytotoxic IC50 measured after 48 hrs relative to control
# [4] = Inhibition of RTK/PI3K/AKT/mTOR signaling in human U87 cells assessed as down regulation of HSPA1B gene expression at cytotoxic IC50 measured after 48 hrs relative to control
# [5] = Inhibition of RTK/PI3K/AKT/mTOR signaling in human U87 cells assessed as down regulation of PTPN21 gene expression at cytotoxic IC50 measured after 48 hrs relative to control
# [6] = Inhibition of RTK/PI3K/AKT/mTOR signaling in human U87 cells assessed as down regulation of ZNF317 gene expression at cytotoxic IC50 measured after 48 hrs relative to control
# [7] = Inhibition of RTK/PI3K/AKT/mTOR signaling in human U87 cells assessed as down regulation of MORC4 gene expression at cytotoxic IC50 measured after 48 hrs relative to control
# [8] = Inhibition of RTK/PI3K/AKT/mTOR signaling in human U87 cells assessed as down regulation of PDRG1 gene expression at cytotoxic IC50 measured after 48 hrs relative to control
# [9] = Inhibition of RTK/PI3K/AKT/mTOR signaling in human U87 cells assessed as down regulation of EZH1 gene expression at cytotoxic IC50 measured after 48 hrs relative to control
# [10] = Inhibition of RTK/PI3K/AKT/mTOR signaling in human U87 cells assessed as down regulation of ASXL2 gene expression at cytotoxic IC50 measured after 48 hrs relative to control
# [11] = Inhibition of RTK/PI3K/AKT/mTOR signaling in human U87 cells assessed as down regulation of CACYBP gene expression at cytotoxic IC50 measured after 48 hrs relative to control
# [12] = Inhibition of RTK/PI3K/AKT/mTOR signaling in human U87 cells assessed as down regulation of POMP gene expression at cytotoxic IC50 measured after 48 hrs relative to control
# [13] = Inhibition of RTK/PI3K/AKT/mTOR signaling in human U87 cells assessed as down regulation of AK3 gene expression at cytotoxic IC50 measured after 48 hrs relative to control
# [14] = Inhibition of RTK/PI3K/AKT/mTOR signaling in human U87 cells assessed as down regulation of SMNDC1 gene expression at cytotoxic IC50 measured after 48 hrs relative to control
# [15] = Inhibition of RTK/PI3K/AKT/mTOR signaling in human U87 cells assessed as up regulation of ELF3 gene expression at cytotoxic IC50 measured after 48 hrs relative to control
# [16] = Inhibition of RTK/PI3K/AKT/mTOR signaling in human U87 cells assessed as up regulation of BST2 gene expression at cytotoxic IC50 measured after 48 hrs relative to control
# [17] = Inhibition of RTK/PI3K/AKT/mTOR signaling in human U87 cells assessed as up regulation of EFHD2 gene expression at cytotoxic IC50 measured after 48 hrs relative to control
# [18] = Inhibition of RTK/PI3K/AKT/mTOR signaling in human U87 cells assessed as up regulation of potassium voltage-gated channel subfamily J member 12 gene expression at cytotoxic IC50 measured after 48 hrs relative to control
# [19] = Inhibition of RTK/PI3K/AKT/mTOR signaling in human U87 cells assessed as up regulation of PTPRF interacting protein alpha 3 gene expression at cytotoxic IC50 measured after 48 hrs relative to control
# [20] = Inhibition of RTK/PI3K/AKT/mTOR signaling in human U87 cells assessed as up regulation of coronin 2A gene expression at cytotoxic IC50 measured after 48 hrs relative to control
# [21] = Inhibition of RTK/PI3K/AKT/mTOR signaling in human U87 cells assessed as up regulation of catechol-O-methyltransferase gene expression at cytotoxic IC50 measured after 48 hrs relative to control
# [22] = Inhibition of RTK/PI3K/AKT/mTOR signaling in human U87 cells assessed as up regulation of CDC42 effector protein 3 gene expression at cytotoxic IC50 measured after 48 hrs relative to control
# [23] = Inhibition of RTK/PI3K/AKT/mTOR signaling in human U87 cells assessed as up regulation of tumor protein D52 gene expression at cytotoxic IC50 measured after 48 hrs relative to control
# [24] = Inhibition of RTK/PI3K/AKT/mTOR signaling in human U87 cells assessed as up regulation of ring finger protein 149 gene expression at cytotoxic IC50 measured after 48 hrs relative to control
# [25] = Inhibition of RTK/PI3K/AKT/mTOR signaling in human U87 cells assessed as up regulation of cytochrome b5 type B gene expression at cytotoxic IC50 measured after 48 hrs relative to control
# [26] = Inhibition of RTK/PI3K/AKT/mTOR signaling in human U87 cells assessed as up regulation of zinc finger AN1-type containing 1 gene expression at cytotoxic IC50 measured after 48 hrs relative to control
# [27] = Inhibition of RTK/PI3K/AKT/mTOR signaling in human U87 cells assessed as up regulation of FDXR gene expression at cytotoxic IC50 measured after 48 hrs relative to control
# [28] = Inhibition of RTK/PI3K/AKT/mTOR signaling in human U87 cells assessed as up regulation of GNL3 gene expression at cytotoxic IC50 measured after 48 hrs relative to control
# [29] = Inhibition of RTK/PI3K/AKT/mTOR signaling in human U87 cells assessed as up regulation of SDC3 gene expression at cytotoxic IC50 measured after 48 hrs relative to control
# [30] = Inhibition of RTK/PI3K/AKT/mTOR signaling in human U87 cells assessed as up regulation of PLXNA3 gene expression at cytotoxic IC50 measured after 48 hrs relative to control
# [31] = Inhibition of RTK/PI3K/AKT/mTOR signaling in human U87 cells assessed as up regulation of SUMO2 gene expression at cytotoxic IC50 measured after 48 hrs relative to control
# [32] = Inhibition of RTK/PI3K/AKT/mTOR signaling in human U87 cells assessed as up regulation of PRKDC gene expression at cytotoxic IC50 measured after 48 hrs relative to control
smiles,measurement,setting,value
CC(=O)C(=NNc1ccccc1C#N)C(C)=O,log2FC,[1],-1.49
same,log2FC,[2],-1.43
same,log2FC,[3],-1.16
same,log2FC,[4],-4.16
same,log2FC,[5],-1.01
same,log2FC,[6],-0.992
same,log2FC,[7],-0.926
same,log2FC,[8],-0.816
same,log2FC,[9],-0.729
same,log2FC,[10],-0.609
same,log2FC,[11],-0.583
same,log2FC,[12],-0.567
same,log2FC,[13],-0.564
same,log2FC,[14],-0.558
same,log2FC,[15],3.11
same,log2FC,[16],2.48
same,log2FC,[17],1.77
same,log2FC,[18],1.34
same,log2FC,[19],1.2
same,log2FC,[20],0.968
same,log2FC,[21],0.905
same,log2FC,[22],0.838
same,log2FC,[23],0.801
same,log2FC,[24],0.793
same,log2FC,[25],0.714
same,log2FC,[26],0.651
same,log2FC,[27],0.643
same,log2FC,[28],0.611
same,log2FC,[29],0.59
same,log2FC,[30],0.534
same,log2FC,[31],0.42
same,log2FC,[32],0.376
